Results are given in words; binding and its absence hold for the method and conditions named. A result given as binding can be weak or reduced; the word gives no strength.
Tests used:
[1] = target: HSA-Fuc-GM1 conjugate (human); assay: ELISA on coated conjugate
[2] = target: HSA-Fuc-GM1 conjugate (human); assay: ELISA on HSA-Fuc-GM1 conjugate; detected with anti-mouse IgG biotin and streptavidin HRP; A450 against 620 nm background

binding [1]: binds
binding [2]: binds
B1: mAb FL134.33 (antibody, V domains shown)
VH: AVQLQESGPDLVKPSQSLSLTCTVTGYSITSGYSWHWIRQFPGNKLEWVGYIHYRGNTNYNPSLKSRVSITRDTYKNQFFLQLNSLTTEDTATYYCAQEPVRNYAMDFWGQGTSVTVSS
VL: DIVMTQSPDTLSVTPGDRVSLSCRASQSISDDLHWYQQKSHESPRLLIKYVSQSISGIPSRFSGSGSRSDFTLTINSVEPEDVGLYYCQNGHGFPPTFGGGTKLEIK

From patent US12552876
